Measured values reported in paper PMC11490702.
Positions count from the first letter of the chain named. In names and notes the source's numbering stands. Results are given in words; binding and its absence hold for the method and conditions named. In cells and extracts the contact can be indirect. Some binding calls cover weakened binding; strength is not graded here. Sequences can lack the tags named with a protein.

B1: HA-OGT-WT (enzyme, UniProt O15294 1-1046)
chain: MASSVGNVADSTEPTKRMLSFQGLAELAHREYQAGDFEAAERHCMQLWRQEPDNTGVLLLLSSIHFQCRRLDRSAHFSTLAIKQNPLLAEAYSNLGNVYKERGQLQEAIEHYRHALRLKPDFIDGYINLAAALVAAGDMEGAVQAYVSALQYNPDLYCVRSDLGNLLKALGRLEEAKACYLKAIETQPNFAVAWSNLGCVFNAQGEIWLAIHHFEKAVTLDPNFLDAYINLGNVLKEARIFDRAVAAYLRALSLSPNHAVVHGNLACVYYEQGLIDLAIDTYRRAIELQPHFPDAYCNLANALKEKGSVAEAEDCYNTALRLCPTHADSLNNLANIKREQGNIEEAVRLYRKALEVFPEFAAAHSNLASVLQQQGKLQEALMHYKEAIRISPTFADAYSNMGNTLKEMQDVQGALQCYTRAIQINPAFADAHSNLASIHKDSGNIPEAIASYRTALKLKPDFPDAYCNLAHCLQIVCDWTDYDERMKKLVSIVADQLEKNRLPSVHPHHSMLYPLSHGFRKAIAERHGNLCLDKINVLHKPPYEHPKDLKLSDGRLRVGYVSSDFGNHPTSHLMQSIPGMHNPDKFEVFCYALSPDDGTNFRVKVMAEANHFIDLSQIPCNGKAADRIHQDGIHILVNMNGYTKGARNELFALRPAPIQAMWLGYPGTSGALFMDYIITDQETSPAEVAEQYSEKLAYMPHTFFIGDHANMFPHLKKKAVIDFKSNGHIYDNRIVLNGIDLKAFLDSLPDVKIVKMKCPDGGDNADSSNTALNMPVIPMNTIAEAVIEMINRGQIQITINGFSISNGLATTQINNKAATGEEVPRTIIVTTRSQYGLPEDAIVYCNFNQLYKIDPSTLQMWANILKRVPNSVLWLLRFPAVGEPNIQQYAQNMGLPQNRIIFSPVAPKEEHVRRGQLADVCLDTPLCNGHTTGMDVLWAGTPMVTMPGETLASRVAASQLTCLGCLELIAKNRQEYEDIAVKLGTDLEYLKKVRGKVWKQRISSPLFNTKQYTMELERLYLQMWEHYAAGNKPDHMIKPVEVTESA
B2: HA-14-3-3-η (protein, UniProt Q04917 1-246)
chain: MGDREQLLQRARLAEQAERYDDMASAMKAVTELNEPLSNEDRNLLSVAYKNVVGARRSSWRVISSIEQKTMADGNEKKLEKVKAYREKIEKELETVCNDVLSLLDKFLIKNCNDFQYESKVFYLKMKGDYYRYLAEVASGEKKNSVVEASEAAYKEAFEISKEQMQPTHPIRLGLALNFSVFYYEIQNAPEQACLLAKQAFDDAIAELDTLNEDSYKDSTLIMQLLRDNLTLWTSDQQDEEAGEGN
B3: HA-14-3-3-γ (protein, UniProt P61981 1-247)
chain: MVDREQLVQKARLAEQAERYDDMAAAMKNVTELNEPLSNEERNLLSVAYKNVVGARRSSWRVISSIEQKTSADGNEKKIEMVRAYREKIEKELEAVCQDVLSLLDNYLIKNCSETQYESKVFYLKMKGDYYRYLAEVATGEKRATVVESSEKAYSEAHEISKEHMQPTHPIRLGLALNYSVFYYEIQNAPEQACHLAKTAFDDAIAELDTLNEDSYKDSTLIMQLLRDNLTLWTSDQQDDDGGEGNN
B4: HA-14-3-3-θ (protein, UniProt P27348 1-245)
chain: MEKTELIQKAKLAEQAERYDDMATCMKAVTEQGAELSNEERNLLSVAYKNVVGGRRSAWRVISSIEQKTDTSDKKLQLIKDYREKVESELRSICTTVLELLDKYLIANATNPESKVFYLKMKGDYFRYLAEVACGDDRKQTIDNSQGAYQEAFDISKKEMQPTHPIRLGLALNFSVFYYEILNNPELACTLAKTAFDEAIAELDTLNEDSYKDSTLIMQLLRDNLTLWTSDSAGEECDAAEGAEN
B5: HA-OGT-R17C (enzyme, UniProt O15294 1-1046)
chain: B1 chain with R17C

Experiments:
[1] = molecular target: T1, endogenous Chk1 (human (endogenous in HeLa or HEK293T)) (UniProt O14757); test: co-IP; transfected OGT (WT or R17C) with endogenous Chk1
T1 sequence: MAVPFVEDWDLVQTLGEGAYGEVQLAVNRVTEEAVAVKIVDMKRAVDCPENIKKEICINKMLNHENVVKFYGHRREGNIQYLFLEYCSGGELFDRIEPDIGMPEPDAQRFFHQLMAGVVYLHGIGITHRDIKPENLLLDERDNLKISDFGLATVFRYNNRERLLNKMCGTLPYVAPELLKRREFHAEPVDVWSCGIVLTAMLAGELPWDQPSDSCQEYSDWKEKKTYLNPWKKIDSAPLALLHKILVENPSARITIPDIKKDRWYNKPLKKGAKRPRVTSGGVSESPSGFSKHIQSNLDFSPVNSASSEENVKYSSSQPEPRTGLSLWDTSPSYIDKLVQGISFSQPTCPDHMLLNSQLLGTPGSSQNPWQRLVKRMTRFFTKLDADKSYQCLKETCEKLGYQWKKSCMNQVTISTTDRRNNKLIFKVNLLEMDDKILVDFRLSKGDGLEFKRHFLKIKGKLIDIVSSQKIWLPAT

[2] = molecular target: T2, Flag-Chk1 (UniProt O14757); test: co-IP; HEK-293T cells transfected with HA-OGT (WT or R17C) and Flag-Chk1; lysates immunoprecipitated and immunoblotted
T2 sequence: T1 sequence

[3] = molecular target: T3, Recombinant GST-Chk1 (UniProt O14757); test: pull-down; recombinant GST-Chk1 incubated with lysates of cells transfected with HA-OGT-WT or -R17C; GST pulldown; only the target purified
T3 sequence: T1 sequence

[4] = molecular target: T4, Flag-OGT-S20A (UniProt O15294); test: co-IP; cells co-transfected with Flag-OGT (WT or S20A) and HA-14-3-3 isoforms; immunoprecipitated with anti-Flag
T4 sequence: B1 chain with S20A

[5] = molecular target: T5, Flag-OGT-WT (UniProt O15294); test: as above
T5 sequence: B1 chain

binding [1]	binding [2]	binding [3]	binding [4]	binding [5]	Binder
binds	binds	binds	–	–	B1
–	–	–	binds	binds	B2
–	–	–	binds	binds	B3
–	–	–	binds	binds	B4
binds	binds	binds	–	–	B5
